In all, about 59,000 compounds went through this assay and about 35 (0.06%) were called active. Inconclusive results, whose numbers are uncertain, are shown with a selection of clear calls. Cut-off read from the data, not from the text of the source: active = max dye-equivalent concentration above about 10 nM; inconclusive = between about 1.1 nM and that limit; inactive = weaker than that.
Assay: qHTS Assay for Spectroscopic Profiling in Texas Red Spectral Region
Details: Compound fluorescence, Texas Red channel, 547/618 nm; hits give high values
Outline: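 Compound titrations in 100 mM Tris pH 8.0 were incubated 15 min at room temperature and read at 547 nm excitation / 618 nm emission. Texas Red six-point standard curve on each plate converted fluorescence to dye-equivalent concentration.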

| Structure (SMILES) | max dye-equivalent concentration | outcome |
| --- | --- | --- |
| CCOc1ccc(NC(=O)C2CCC(N3C(=O)C4CC=CCC4C3=O)CC2)cc1 (stereo unspecified) | inconclusive: 1.3 nM |  |
| CCOc1ccc2nc(-c3ccc(OC)c(OC)c3)cc(C(=O)O)c2c1 | inconclusive: 1.5 nM |  |
| Cn1c2c(c(=O)n(C)c1=O)C(CC(=O)Nc1ccccc1)C(=O)N2 (stereo unspecified) | inconclusive: 1.1 nM |  |
| CN1CCN(Cc2cc(=O)oc3cc4c(cc23)CCC4)CC1 | inconclusive: 1.1 nM |  |
| O=C(O)/C=C\C(=O)Nc1ccc2c(c1)C(=O)c1cc(F)ccc1-2 | inconclusive: 1.3 nM |  |
| Cc1ocnc1C(=O)Nc1ccc(Cl)cc1 | inconclusive: 1.2 nM |  |
| CC(=O)Nc1nc2ncc(C=O)nc2c(=O)[nH]1 | inactive |  |
| ON1C(c2ccc(Cl)cc2Cl)N(O)[C@H]2CCCC[C@H]21 (stereo partly specified) | inconclusive: 1.2 nM |  |
| CC(NS(C)(=O)=O)C(c1cccs1)N1CCN(c2ccccc2)CC1 (stereo unspecified) | inconclusive: 1.5 nM |  |
| CCC(C)Nc1nc2c(c(=O)[nH]c(=O)n2C)n1CCC(C)C (stereo unspecified) | inconclusive: 1.7 nM |  |
| Cc1csc(NC(=O)CSc2nnc(-c3ccccn3)n2-c2ccc(C)c(C)c2)n1 | inconclusive: 2 nM |  |
| CC(C)(C)OC(=O)N1CCC[C@H]1c1nnc(SCc2c(F)cccc2Cl)o1 | inconclusive: 1.2 nM |  |
| Cc1cc(N)n(-c2nc(-c3cccnc3)nc3ccccc23)n1 | inconclusive: 1.3 nM |  |
| CCCCNC(=O)CCn1c(=O)c2ccccc2n(CC(=O)N2CC(C)CC(C)C2)c1=O (stereo unspecified) | inconclusive: 1.5 nM |  |
| Cc1nn(-c2ccccc2)c(C)c1NC(=O)c1cccs1 | inconclusive: 1.9 nM |  |
| c1ccc(C(c2ccccc2)N2CC3(CCNCC3)C2)cc1 | inactive |  |
| Cn1nc(CC(=O)Nc2ccc3c(c2)OCCO3)c2ccccc2c1=O | inconclusive: 1.1 nM |  |
| CC1CCN(CC(O)COC2CCC(C(C)(C)C)CC2)CC1 (stereo unspecified) | inconclusive: 2.1 nM |  |
| COc1ccccc1OCCOCCn1cnc2ccccc2c1=O | inconclusive: 1.6 nM |  |
| N#CC1=C(N)Oc2ccccc2C12C(=O)Nc1n[nH]c(-c3ccccc3)c12 (stereo unspecified) | inconclusive: 1.2 nM |  |
| O=S(=O)(c1ccc(S(=O)(=O)N2CCCN(Cc3ccccc3)C2)cc1)N1CCCCCC1 | inconclusive: 1.1 nM |  |
| COCCNC(=O)c1noc2c1CCc1cc(OC)ccc1-2 | inconclusive: 1.2 nM |  |

In a second layout: entries from further up
Structure (SMILES) | max dye-equivalent concentration | outcome
CC(C)(C)OC(=O)N1CCC[C@H]1c1nnc(SCc2c(F)cccc2Cl)o1 | inconclusive: 1.2 nM | 
Cc1cc(N)n(-c2nc(-c3cccnc3)nc3ccccc23)n1 | inconclusive: 1.3 nM | 
CCCCNC(=O)CCn1c(=O)c2ccccc2n(CC(=O)N2CC(C)CC(C)C2)c1=O (stereo unspecified) | inconclusive: 1.5 nM | 
Cc1nn(-c2ccccc2)c(C)c1NC(=O)c1cccs1 | inconclusive: 1.9 nM | 
c1ccc(C(c2ccccc2)N2CC3(CCNCC3)C2)cc1 | inactive | 

(list continues)

| Structure (SMILES) | max dye-equivalent concentration | outcome |
| --- | --- | --- |
| CN(C)c1nccc(Nc2ccccc2)c1C#N | inconclusive: 1.2 nM |  |
| Nc1nc2c(c(=O)[nH]1)CN(c1ccc(S(N)(=O)=O)cc1)CN2 | inconclusive: 2 nM |  |
| Cc1cccc(N2CCN(C(=O)c3ccncc3)CC2C)c1 (stereo unspecified) | inconclusive: 3.5 nM |  |
| CN1CC[C@@]2(CCCN(C(=O)c3cccc(F)c3)C2)C1 | inactive |  |
| COc1ccc(CCNc2oc(-c3ccc(OC)c(OC)c3)nc2C#N)cc1 | inconclusive: 1.3 nM |  |
| Cc1ccc(-c2ccc(=O)n(CC(=O)NCCN3C(C)CCCC3C)n2)cc1 (stereo unspecified) | inconclusive: 1.1 nM |  |
| N#Cc1c(N)oc(-c2ccccc2)c1-c1ccccc1 | inconclusive: 1.8 nM |  |
| CCOC(=O)N1CCN(CCC(=O)Nc2cccc(Br)c2)CC1 | inconclusive: 1.6 nM |  |
| O=C(COc1ccc(S(=O)(=O)NC2CCCCC2)cc1Cl)NCC1CCCO1 (stereo unspecified) | inconclusive: 1.6 nM |  |
| CN(C)C/C=C(\c1ccc(Br)cc1)c1cccnc1 | inconclusive: 1.4 nM |  |
| CCOC(=O)Cc1csc(NC(=O)CS(=O)(=O)Cc2ccccc2)n1 | inconclusive: 1.2 nM |  |
| O=C(O)CSC12CC3CC(C1)CC(C(=O)O)(C3)C2 | inconclusive: 1.7 nM |  |
| COc1cccc(Cn2c(=O)cnc3cnc(Oc4cccc(Cl)c4)nc32)c1 | inactive |  |
| Cc1cccc(-c2noc(CCC(=O)NCc3ccccc3)n2)c1 | inconclusive: 1.3 nM |  |
| Cc1ccc(Nc2nc(C(=O)NCc3ccco3)cs2)cc1 | inconclusive: 1.4 nM |  |
| CCCCC(CC)Cn1c2nc3ccccc3nc2c2c(=N)oc(C)nc21 (stereo unspecified) | inconclusive: 3.8 nM |  |
| C=CCn1c(SCC(N)=O)nc(C)cc1=O | inconclusive: 1.5 nM |  |
| Cc1cc(C)n(-c2ccc(C(=O)OCc3nnc(-c4ccccc4)o3)cc2)n1 | inconclusive: 1.6 nM |  |
| O=C(OCn1nnc2ccccc2c1=O)c1ccc2c(=O)n3c(nc2c1)CCC3 | inconclusive: 1.3 nM |  |
| COc1ccc(C(C(O)C(=O)c2c[nH]c3ccccc23)N2CCN(c3ccccc3)CC2)cc1 (stereo unspecified) | inactive |  |
| O=C(c1ccccc1CCc1ccccc1)N1CCN(c2ccccn2)CC1 | inconclusive: 1.4 nM |  |
| CC(=O)NCCn1c(SCc2ccccc2F)nc2ccccc2c1=O | inconclusive: 1.2 nM |  |

| Structure (SMILES) | max dye-equivalent concentration | outcome |
| --- | --- | --- |
| CCOc1ccc(OCc2cccc(C(=O)N3CCOCC3)c2)cc1 | inconclusive: 1.7 nM |  |
| O=c1cc(-c2ccccc2)c2ccc(O)c(CN3CCCCC3)c2o1 | inconclusive: 1.2 nM |  |
| CC1CCCC(C)N1C(=O)CSc1nc2ncnc(N)c2[nH]1 (stereo unspecified) | inconclusive: 1.9 nM |  |
| Cc1ccc(S(=O)(=O)c2c(N)n(C)c3nc4ccccc4nc23)cc1 | inconclusive: 1.1 nM |  |
| CCC(C)(C)n1nnnc1C(c1cc2ccc(OC)cc2[nH]c1=O)N1CCc2ccccc2C1 (stereo unspecified) | inconclusive: 1.2 nM |  |
| CCc1ccccc1OCC(=O)NC1CCCC1 | inconclusive: 2.3 nM |  |
| CCOc1ncccc1C(=O)OCC(=O)Nc1cc(C(=O)OC)ccc1C(=O)OC | inconclusive: 1.3 nM |  |
| O=S(=O)(NCCc1ccccc1)c1cccc(S(=O)(=O)N2CCOCC2)c1 | inconclusive: 1.2 nM |  |
| COc1cccc(Nc2ncc3nc(-c4cn(C)c5ccccc45)c(=O)n(C[C@H]4CCCO4)c3n2)c1 | inactive |  |
| Cc1ccc2cc(CN(Cc3cccs3)Cc3nnnn3C(C)(C)C)c3nnnn3c2c1 | inconclusive: 1.3 nM |  |
| O=c1c(-c2cc(F)cc(F)c2)nc2cncnc2n1Cc1ccc(F)cc1 | inactive |  |
| Cc1cccc(NC(=O)c2ccccc2OCC(=O)N2CCOCC2)c1C | inconclusive: 1.1 nM |  |
| CCCn1c(=O)c2ccccc2n2c(SCC(=O)c3ccccc3)nnc12 | inconclusive: 1.1 nM |  |
| Cc1cnn(-c2nc(-c3cccs3)cc(C(F)(F)F)n2)c1 | inconclusive: 1.3 nM |  |
| CC(C)C1N(S(=O)(=O)c2ccccc2)CCN1S(=O)(=O)c1ccccc1 | inconclusive: 2.6 nM |  |
| Cc1ccc(-c2noc(C3CCCN(C(=O)c4c(F)cccc4F)C3)n2)cc1 (stereo unspecified) | inconclusive: 1.3 nM |  |
| COc1ccccc1CCn1c(=O)c(-c2ccc(Cl)cc2)nc2cncnc21 | inconclusive: 1.1 nM |  |
| Cc1ccc(Cn2nnc3c(=O)[nH]c(C4CCN(C(=O)c5cccs5)CC4)nc32)cc1 | inconclusive: 1.1 nM |  |
| COCCNc1nc(-c2ccc(N(C)C)cc2)nc2ccccc12 | inactive |  |
| C/C(Cl)=C\CNC(C)c1ccccc1 (stereo unspecified) | inconclusive: 1.6 nM |  |
| C[N+](C)(C)[C@H](Cc1c[nH]c(=S)[nH]1)C(=O)O | inconclusive: 2 nM |  |
| CC1(C)CC(=O)C2=C(C1)NCN(CCCN1CCOCC1)C2 | inconclusive: 1.3 nM |  |

| Structure (SMILES) | max dye-equivalent concentration | outcome |
| --- | --- | --- |
| CC1(C)S[C@@H]2[C@H](NC(=O)C3(N)CCCCC3)C(=O)N2[C@@H]1C(=O)O | inconclusive: 1.6 nM |  |
| COc1ccc(CN2CC(C(=O)NCCCN3CCN(C)CC3)CC2=O)cc1 (stereo unspecified) | inconclusive: 2.1 nM |  |
| CN(C)c1ccc(/C=C/c2cc[n+]([O-])cc2)cc1 | inconclusive: 1.9 nM |  |
| O=C(CCCC(=O)N1CCc2ccccc21)N1CCc2ccccc21 | inconclusive: 1.1 nM |  |
| CCOC(=O)c1cnc(SCc2ccc(C)cc2)nc1N | inconclusive: 1.9 nM |  |
| COCCn1c(=O)c(-c2ccc(OC)cc2)nc2cnc(Nc3ccccc3)nc21 | inactive |  |
| CCOc1ccccc1C1CC(=O)Nc2cc3c(cc21)OCCO3 (stereo unspecified) | inconclusive: 2.6 nM |  |
| N=c1c(C(=O)NC2CCCC2)cc2c(=O)n3ccccc3nc2n1CCN1CCOCC1 | inconclusive: 1.3 nM |  |
| COC(=O)c1ccc2c(=O)n(CC3CCCO3)c(=S)[nH]c2c1 (stereo unspecified) | inconclusive: 1.4 nM |  |
| CCn1c(Cc2ccccc2)nnc1SCC(=O)Nc1ccc(N2CCOCC2)c(Cl)c1 | inconclusive: 1.9 nM |  |
| COCC(=O)N1CCC2(CC1)CCN(C(=O)Nc1cccc(F)c1)CC2 | inactive |  |
| CCn1cc(C(=O)O)c(=O)c2cc(OC)ccc21 | inconclusive: 1.1 nM |  |
| CCCCOC(=O)c1ccc(NC(=O)c2cnccn2)cc1 | inconclusive: 1.2 nM |  |
| O=C1c2ccccc2C(=O)N1CCCn1c(=O)oc2ccccc21 | inconclusive: 1.3 nM |  |
| NC(=O)c1cc[n+](CC2=C(C(=O)O)N3C(=O)[C@@H](NC(=O)[C@H](c4ccccc4)S(=O)(=O)[O-])[C@@H]3SC2)cc1 | inconclusive: 1.2 nM | inactive |
| Cc1ccc(-n2ncc3c(=O)n(CC(=O)NC4CCCC4)cnc32)cc1C | inconclusive: 1.3 nM |  |
| CCOC(=O)N1CCN(S(=O)(=O)c2ccc(F)c(C(=O)Nc3cccc(C)c3C)c2)CC1 | inconclusive: 1.8 nM |  |
| O=C(COc1ccc(Cl)cc1)Nc1nc(-c2cccs2)cs1 | inconclusive: 1.4 nM |  |
| C=CCn1c(=O)c2c(nc(-c3ccc(S(=O)(=O)O)cc3)n2C)n(C)c1=O | inconclusive: 1.6 nM |  |

From PubChem BioAssay AID587 (National Center for Advancing Translational Sciences (NCATS), 2007)
